Laboratory results taken from ChEMBL document CHEMBL4138122, “Azaphenothiazines - promising phenothiazine derivatives. An insight into nomenclature, synthesis, structure elucidation and biological properties” (Eur J Med Chem, 2017).

System: HepG2
Test: cells
Settings: Homo sapiens, HepG2, 72 h

- IC50: 5 µM
SMILES: COc1cccc2c1C(=O)c1c(O)c3c(c(O)c1C2=O)C[C@@](O)(C(=O)CO)C[C@@H]3O[C@H]1C[C@H](N)[C@H](O)[C@H](C)O1 [DOXORUBICIN]
